The test is described as follows: qHTS Assay for Lipid Storage Modulators in Drosophila S3 Cells.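 On cell number change: cells counted by Cell Tracker Red CMTPX staining in the red channel.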 The conditions noted are these: BODIPY lipid droplet fluorescence, 18-24 h; for cell number change: measured here: cell count max response, cells fed with added oleic acid. An outline of the steps:
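Drosophila S3 cells got compounds at several concentrations plus oleic acid (400 uM solution). Laser-scanning cytometry with 488 nm excitation read lipid droplets at 500-530 nm and cells at 575-640 nm. Percent activity was relative to 20 uM Triacsin C.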
(In qHTS, concentration-response curves come from the screen itself.)

[1] abbreviates: measured here: lipid fluorescence (Fed channel) AC50, cells fed with added oleic acid.
[2] abbreviates: measured here: cell number channel AC50, cells fed with added oleic acid.

Some of the results follow. The main result of the screen is listed elsewhere. These columns were measured beside it and carry no call. Most of these compounds were active or inconclusive in the main read-out, so they are no random draw. Potencies come from curve fits of mixed quality, noted in brackets.

This passage reports cell number change and AC50 results from PubChem BioAssay AID2685 (National Center for Advancing Translational Sciences (NCATS), 2010).

Regarding `O=C(CNC(=O)c1ccc(Cl)cc1Cl)OCC(=O)N1CCCC1`, the cell number change was -4.4%. Besides, the AC50 under setting [1] is 1.84 µM [rising, partial curve].

For the compound `COC(=O)c1onc(-c2ccccc2)c1C(=O)OC`, the AC50 under setting [2] was 6.51 µM [falling, single point] and the AC50 under setting [1] is 2.59 µM [falling, full curve, poor fit].

Take `CC(=O)c1cccc(Nc2ccc(-c3ccccc3F)nn2)c1`: the cell number change is -10.4%.

`CCN(CC)c1ccc(C(=O)NNC(=O)CN2C(=O)NC(C)(c3ccccc3)C2=O)cc1` (configuration not stated): the cell number change was 34.2%. For the same compound, under setting [2], the AC50 was 25.9 µM [rising, single point]. For the same compound, the AC50 under setting [1] is 5.8 µM [falling, partial curve].

Consider `O=C(Nc1nc2ccccc2n1Cc1ccccc1)c1ccco1`, for which the cell number change was -17.6%.

On to `CCOC(=O)c1c(CN(C)C)n(C)c2c(O)c(N=NC(N)=O)c3ccc(Br)cc3c12`, for which the cell number change was -49.3%. The AC50 under setting [2] was 32.6 µM [falling, single point]. Further, the AC50 under setting [1] was 29.1 µM [falling, single point].

Regarding `COC(=O)c1cc(Cl)c(NC(=O)C(C)C)cc1OC`, the cell number change is -21.7%. For the same compound, the AC50 under setting [2] was 1.64 µM [falling, partial curve, poor fit]. Besides, under setting [1], the AC50 is 0.0731 µM [falling, full curve, poor fit].

With `CCOC(=O)C(Cc1c(F)cccc1F)(NC(C)=O)C(=O)OCC`, the cell number change is -2.56%. Moreover, under setting [1], the AC50 was 1.3 µM [falling, full curve].

As to `COc1cccc(CN(C)C(=O)c2ccc3c(=O)n4c(nc3c2)CCC4)c1OC`, the cell number change is -36.4%. Also, the AC50 under setting [2] is 3.66 µM [falling, full curve, poor fit]. Under setting [1], the AC50 is 1.64 µM [falling, full curve].

In the case of `CC(=O)NC(c1ccc2ccccc2c1)c1ccc2cccnc2c1O` (configuration not stated), the cell number change is -66.2%. The AC50 under setting [2] is 20.6 µM [falling, partial curve].

Take `CC1CCN(c2nnc(N)s2)CC1`: the cell number change is -52%. Also, the AC50 under setting [2] is 1.84 µM [falling, partial curve]. The AC50 under setting [1] is 1.84 µM [falling, partial curve].

For `Cc1coc2c1c(C)cc1oc(=O)c(CC(=O)NCC(=O)O)c(C)c12`, the cell number change was 4.5%. In addition, under setting [1], the AC50 was 29.1 µM [rising, single point].

For `CCOC(=O)CC(NC(=O)CCS(=O)(=O)c1ccc2c(c1)n(C)c(=O)c(=O)n2C)c1ccc(C)cc1` (configuration not stated), the cell number change was -1.47%.

In the case of `O=S(=O)(c1cccc(C(F)(F)F)c1)N1CCN(c2cnccn2)CC1`, the cell number change was found to be 11.2%.

On to `O=C(Nc1ccccc1Cl)C1CCCN1C(=O)OCc1ccccc1` (configuration not stated), for which the cell number change is -18%. Moreover, under setting [2], the AC50 was 0.00411 µM [falling, full curve, poor fit]. The AC50 under setting [1] was 29.1 µM [rising, single point].

In the case of `CCCn1c(C)cc(-c2csc(N)n2)c1C`, the AC50 is 2.91 µM [rising, partial curve] under setting [2] and 2.91 µM [rising, partial curve] under setting [1].

`Cc1ccc(S(=O)(=O)N/N=C/c2cccc(OC3CSC3)c2)cc1`: the cell number change is -59.7%. For the same compound, under setting [2], the AC50 was 1.3 µM [falling, full curve]. Under setting [1], the AC50 was 1.16 µM [falling, full curve].

On to `Cc1ccc(NC(=O)c2sccc2-n2cccc2)c(C)c1`, for which the cell number change was 69.1%. Also, the AC50 under setting [2] was 0.326 µM [rising, partial curve, poor fit]. In addition, under setting [1], the AC50 is 0.082 µM [rising, full curve, poor fit].

On to `C/C(=N\NC(=O)CSc1nc(C)cc(C)n1)c1cccc([N+](=O)[O-])c1`, for which the cell number change is 1.74%. In addition, the AC50 under setting [1] was 0.00517 µM [rising, full curve, poor fit].

On to `CC(C(=O)N1c2ccccc2CCc2ccccc21)n1nnc(-c2ccc(N(C)C)cc2)n1` (configuration not stated), for which the cell number change is -10.6%. The AC50 under setting [1] was 32.6 µM [falling, single point].

With `COCCCNC(=O)c1cccc(C(=O)NCCCOC)c1`, the cell number change is -19.5%. The AC50 under setting [1] is 0.651 µM [falling, full curve].

Regarding `CC(C)C[C@H](N)c1nnc(SCC(=O)Nc2ccc(Br)cc2)o1`, the AC50 under setting [1] was 29.1 µM [rising, single point].

For `O=C1CCCC2=C1C(c1ccsc1)CC(=O)N2c1ccccc1` (configuration not stated), the cell number change was -163%. Further, the AC50 under setting [2] was 25.9 µM [falling, partial curve]. Under setting [1], the AC50 was 23.1 µM [falling, partial curve].

With `Cc1csc(NC(=O)c2ccc3c(c2)OCO3)n1`, the cell number change was 0.435%. Besides, under setting [1], the AC50 is 0.116 µM [rising, full curve, poor fit].

With `O=C(c1cccs1)N(CCN1CCCCC1)CC1CCCN(C2CCCC2)C1` (configuration not stated), the cell number change came out at 2.75%.

Consider `Cc1cccc2nc(CSc3nc4[nH]ncc4c(=O)n3-c3ccccc3Cl)cc(=O)n12`, for which the cell number change was determined as 14.5%. Further, under setting [1], the AC50 is 0.082 µM [rising, full curve, poor fit].

Regarding `Cc1ccc(S(=O)(=O)N2CCCCC2)cc1C(=O)NC1CC(C)(C)NC(C)(C)C1`, the cell number change is -24.8%. Further, under setting [2], the AC50 was 3.26 µM [falling, full curve, poor fit]. Also, the AC50 under setting [1] is 16.4 µM [falling, partial curve].

For the compound `Cc1[nH]c2ccccc2c1-c1ccc(Cl)nn1`, the cell number change worked out at 65.8%. In addition, the AC50 under setting [2] is 18.4 µM [rising, partial curve].

Turning to `COCCCn1cnc2c(c1=O)c1nc3ccccc3nc1n2-c1ccc(C)cc1`, the cell number change amounted to 19.6%. The AC50 under setting [1] is 6.51 µM [rising, single point].

Take `COc1ccccc1CCC(=O)Nc1nc2ccccc2[nH]1`: the cell number change came out at 4.42%. Moreover, the AC50 under setting [1] was 0.92 µM [rising, full curve].

On to `O=C(O)CC(NC(=O)CCC1CCCCC1)c1cc([N+](=O)[O-])ccc1Cl` (configuration not stated), for which the cell number change was -27.5%. Moreover, the AC50 under setting [2] is 3.66 µM [falling, full curve, poor fit]. Besides, the AC50 under setting [1] is 4.61 µM [falling, full curve].

For `COc1ccc(OCCCC(=O)Nc2nnc(C3CCCO3)s2)cc1` (configuration not stated), the cell number change is 16.2%. Moreover, the AC50 under setting [1] was 5.17 µM [rising, full curve].

`CCC1S/C(=N\S(=O)(=O)c2cccs2)N(C2CCCCC2)C1=O` (configuration not stated): the cell number change worked out at 0.872%. Further, under setting [1], the AC50 was 0.00411 µM [falling, full curve, poor fit].

In the case of `O=C(O)c1ccccc1C(=O)NCc1cccnc1`, the cell number change was 25%. The AC50 under setting [2] was 0.0164 µM [rising, full curve, poor fit].

For `COCCN1C(=O)C(O)=C(C(C)=O)C1c1ccc(F)cc1` (configuration not stated), the cell number change was -5.39%.

`O=C(Nc1nc(-c2ccco2)c(-c2ccco2)s1)c1ccco1`: the AC50 under setting [1] is 6.51 µM [rising, single point].

Consider `CCOc1ccc(NCc2cccn2-c2nnc(N3CCC(C(=O)NCCCN4C(C)CCCC4C)CC3)s2)cc1` (configuration not stated), for which the cell number change worked out at 17.1%. Moreover, the AC50 under setting [2] was 1.64 µM [rising, partial curve, poor fit]. Further, under setting [1], the AC50 was 14.6 µM [rising, partial curve].

As to `COC(=O)c1sc2nc(-c3ccco3)ccc2c1N`, the cell number change is -9.93%. In addition, under setting [1], the AC50 is 0.651 µM [falling, full curve, poor fit].

For `COc1ccc(S(=O)(=O)N2CCc3ccccc32)cc1C(=O)O`, the cell number change stood at 28.5%.

For `COc1ccc(CCNC(=O)c2cc(=O)c3cc(C)ccc3o2)cc1`, the cell number change was found to be 28.6%. In addition, under setting [2], the AC50 was 0.517 µM [rising, full curve, poor fit]. Also, the AC50 under setting [1] is 11.6 µM [rising, partial curve, poor fit].

Consider `CCOC(=O)[C@H](CCc1ccccc1)N[C@@H](C)C(=O)N1CCC[C@H]1C(=O)O`, for which the cell number change is -24.7%. The AC50 under setting [1] was 5.17 µM [falling, single point].

Regarding `CC12CC3(C)CC(C)(C1)CC(C(=O)NCC(=O)O)(C2)C3`, the AC50 under setting [1] was 1.3 µM [falling, full curve].

`CCc1ccc(CCC(=O)Nc2nc(CC(C)=O)ns2)o1`: the cell number change was found to be 0.814%.

Regarding `COc1ccc(S(=O)(=O)Nc2ccc(F)c(F)c2)cc1Cl`, the cell number change is -92.3%. In addition, the AC50 under setting [2] was 29.1 µM [falling, single point]. Besides, under setting [1], the AC50 is 29.1 µM [falling, single point].

For the compound `Cc1nn2cc(-c3ccccc3)nc2[nH]c1=O`, the cell number change is -24.2%. Further, the AC50 under setting [1] is 29.1 µM [falling, single point].

Take `Cc1c(O)nc(SCC(=O)Nc2ccc3c4c(cccc24)CC3)n(-c2ccccc2)c1=O`: the cell number change is 8.36%. Under setting [2], the AC50 was 2.06 µM [falling, partial curve]. Under setting [1], the AC50 was 2.06 µM [falling, partial curve].

Turning to `CCOCCn1c(-c2ccc(OC)cc2)nc2ccccc21`, the cell number change came to 44.5%. Besides, the AC50 under setting [2] was 13 µM [rising, partial curve, poor fit]. In addition, under setting [1], the AC50 was 16.4 µM [rising, partial curve].

Take `OCC[C@@H]1C[C@H](O)[C@@H](O)[C@]2(Cc3ccccc3O2)O1`: the cell number change came out at 30.2%. Moreover, under setting [2], the AC50 is 4.61 µM [rising, partial curve, poor fit].

Consider `CC(=O)C1=C(C)NC2=C(C(=O)c3ccccc32)C1c1ccccc1` (configuration not stated), for which the AC50 is 6.51 µM [falling, single point] under setting [2] and 5.17 µM [falling, single point] under setting [1].

Take `O=C(c1ccc(S(=O)(=O)N2CCCCC2)cc1)N1CCN(Cc2ccc3c(c2)OCO3)CC1`: the cell number change worked out at 1.48%. In addition, under setting [1], the AC50 was 4.11 µM [rising, full curve, poor fit].

With `COc1ccccc1N1CCN(C(=O)C(Cc2ccccc2)NC(=O)C2CCCCC2)CC1` (configuration not stated), the AC50 is, setting by setting: under setting [2], 3.66 µM [rising, single point]; under setting [1], 2.31 µM [rising, partial curve].

In the case of `CC(=O)c1c(C)nc2sc3c(=N)n(N)cnc3c2c1-c1ccc(Cl)cc1`, the cell number change was 37.2%. For the same compound, the AC50 under setting [2] is 16.4 µM [rising, partial curve].

Regarding `CC(C)(O)C(=O)NNC(=S)Nc1ccc(F)c(Cl)c1`, the cell number change stood at 12.8%.

Take `CN(Cc1ccccc1)S(=O)(=O)c1ccc(Cl)c(C(=O)NCCCN2CCOCC2)c1`: the cell number change was -27.4%. Also, the AC50 under setting [1] is 6.51 µM [falling, single point].

For `Cn1c2c(c(=O)c3ccccc31)CCCC2`, the cell number change was 14.6%. In addition, under setting [1], the AC50 is 11.6 µM [rising, partial curve].

Consider `Cc1cccc(NC(=O)/C(=C/c2cccc([N+](=O)[O-])c2)NC(=O)c2cccs2)c1`, for which the cell number change was -23.6%.

Turning to `CCOP(=O)(OCC)c1nc(-c2ccccc2)oc1NCc1ccccc1`, the cell number change is -50%. For the same compound, the AC50 under setting [1] is 0.731 µM [rising, full curve].

By AC50 is commonly meant the concentration at which the activity in the assay is half-maximal. Higher therefore signals activity only at high concentration.
